From patent publication US12617827B2, “Self-assembling peptide” (NATIONAL UNIVERSITY CORPORATION TOKYO MEDICAL AND DENTAL …, priority 2020, dated 2026)
These are yes or no findings as the source states them, for the method shown. Binding can be weak; no strength is given.

Molecular target: T1, P4 peptide (…), as P4 peptide gel
T1 sequence (peptide, acetyl group at the N-terminus; C-terminus is NH2 amide): RIDARMRADIR
Assay: incorporation into the peptide gel; sandwich ELISA of washes; lower incorporation than VEGF-P4, value only in FIG. 7A

Substance: VEGF peptide to which P4 peptide is not fused (ligand)
- binding: binds
